Test results taken from patent US9023873B2, “Insecticidal 2-methoxybenzamide derivatives” (Syngenta Participations AG, priority 2011, dated 2015).
Some of these results come from one statement about several compounds together.

What was measured:
Type in all cases: in vivo
[1] = system: Heliothis virescens (Tobacco budworm); assay: Heliothis virescens egg test on artificial diet; conditions: 200 ppm (concentration in well 18 ppm), eggs 0-24 h old on artificial diet, 4 days; egg mortality, larval mortality, growth regulation
[2] = system: Thrips tabaci (Onion thrips); assay: Thrips tabaci sunflower leaf disc spray test; conditions: 200 ppm spray on sunflower leaf discs, population of mixed ages, 7 days; mortality
[3] = system: Plutella xylostella (Diamond back moth); assay: Plutella xylostella larval test on artificial diet; conditions: 200 ppm (concentration in well 18 ppm), L2 larvae, 6 days, larval mortality, growth regulation
[4] = system: Myzus persicae (Green peach aphid); assay: Myzus persicae sunflower leaf disc spray test; conditions: 200 ppm spray on sunflower leaf discs, aphid population of mixed ages, 6 DAT; mortality
[5] = system: Diabrotica balteata (Corn root worm); assay: Diabrotica balteata larval test on artificial diet; conditions: 200 ppm (concentration in well 18 ppm), L2 larvae, 5 days, larval mortality, growth regulation
[6] = system: Spodoptera littoralis (Egyptian cotton leafworm); assay: Spodoptera littoralis cotton leaf disc spray test; conditions: 200 ppm spray on cotton leaf discs, L1 larvae, mortality, feeding behavior, growth regulation 3 days after treatment
[7] = system: Tetranychus urticae (Two-spotted spider mite); assay: Tetranychus urticae bean leaf disc spray test; conditions: 200 ppm spray on bean leaf discs, mite populations of mixed ages, 8 days; egg, larval and adult mortality

COc1c(NC(=O)c2ccncc2)cccc1C(=O)Nc1c(Cl)cc(C(F)(C(F)(F)F)C(F)(F)C(F)(F)F)cc1Br (stereo not drawn) [Compound B2]
at least 80%: control of Heliothis virescens [1] | control of Thrips tabaci [2] | control of Plutella xylostella [3] | control of Myzus persicae [4] | control of Diabrotica balteata [5] | control of Spodoptera littoralis [6] | control of Tetranychus urticae [7]

COc1c(NC(=O)c2ccncc2Cl)cccc1C(=O)Nc1c(Cl)cc(C(F)(C(F)(F)F)C(F)(F)C(F)(F)F)cc1Br (stereo not drawn) [Compound B3]
at least 80%: control of Heliothis virescens [1] | control of Thrips tabaci [2] | control of Plutella xylostella [3] | control of Myzus persicae [4] | control of Diabrotica balteata [5] | control of Spodoptera littoralis [6] | control of Tetranychus urticae [7]

COc1c(NC(=O)c2ccncc2)cccc1C(=O)Nc1c(Cl)cc(C(F)(C(F)(F)F)C(F)(F)F)cc1Cl [Compound C1]
at least 80%: control of Heliothis virescens [1] | control of Thrips tabaci [2] | control of Plutella xylostella [3] | control of Myzus persicae [4] | control of Diabrotica balteata [5] | control of Spodoptera littoralis [6] | control of Tetranychus urticae [7]

COc1c(NC(=O)c2ccncc2Cl)cccc1C(=O)Nc1c(Cl)cc(C(F)(C(F)(F)F)C(F)(F)F)cc1Cl [Compound C2]
at least 80%: control of Heliothis virescens [1] | control of Thrips tabaci [2] | control of Plutella xylostella [3] | control of Myzus persicae [4] | control of Diabrotica balteata [5] | control of Spodoptera littoralis [6] | control of Tetranychus urticae [7]

COc1c(NC(=O)c2ccncc2C)cccc1C(=O)Nc1c(Cl)cc(C(F)(C(F)(F)F)C(F)(F)F)cc1Cl [Compound C3]
at least 80%: control of Heliothis virescens [1] | control of Thrips tabaci [2] | control of Myzus persicae [4] | control of Diabrotica balteata [5] | control of Spodoptera littoralis [6] | control of Tetranychus urticae [7]

CCN(C(=O)c1ccncc1)c1cccc(C(=O)Nc2c(Cl)cc(C(F)(C(F)(F)F)C(F)(F)F)cc2Cl)c1OC [Compound C4]
at least 80%: control of Heliothis virescens [1] | control of Thrips tabaci [2] | control of Plutella xylostella [3] | control of Myzus persicae [4] | control of Diabrotica balteata [5] | control of Spodoptera littoralis [6] | control of Tetranychus urticae [7]

CCN(C(=O)c1cc[n+]([O-])cc1)c1cccc(C(=O)Nc2c(Cl)cc(C(F)(C(F)(F)F)C(F)(F)F)cc2Cl)c1OC [Compound C5]
at least 80%: control of Heliothis virescens [1] | control of Thrips tabaci [2] | control of Plutella xylostella [3] | control of Myzus persicae [4] | control of Diabrotica balteata [5] | control of Spodoptera littoralis [6] | control of Tetranychus urticae [7]

COc1c(NC(=O)c2cc[n+]([O-])cc2)cccc1C(=O)Nc1c(Cl)cc(C(F)(C(F)(F)F)C(F)(F)F)cc1Cl [Compound C6]
at least 80%: control of Heliothis virescens [1] | control of Thrips tabaci [2] | control of Plutella xylostella [3] | control of Myzus persicae [4] | control of Diabrotica balteata [5] | control of Spodoptera littoralis [6] | control of Tetranychus urticae [7]

COc1c(C(=O)Nc2c(Cl)cc(C(F)(C(F)(F)F)C(F)(F)F)cc2Cl)cccc1N(C)C(=O)c1ccncc1 [Compound C7]
at least 80%: control of Heliothis virescens [1] | control of Thrips tabaci [2] | control of Plutella xylostella [3] | control of Myzus persicae [4] | control of Diabrotica balteata [5] | control of Spodoptera littoralis [6] | control of Tetranychus urticae [7]

COc1c(C(=O)Nc2c(Cl)cc(C(F)(C(F)(F)F)C(F)(F)F)cc2Cl)cccc1N(C)C(=O)c1cc[n+]([O-])cc1 [Compound C8]
at least 80%: control of Heliothis virescens [1] | control of Thrips tabaci [2] | control of Plutella xylostella [3] | control of Myzus persicae [4] | control of Diabrotica balteata [5] | control of Spodoptera littoralis [6] | control of Tetranychus urticae [7]

CCN(C(=O)c1cccnc1)c1cccc(C(=O)Nc2c(Cl)cc(C(F)(C(F)(F)F)C(F)(F)F)cc2Cl)c1OC [Compound C9]
at least 80%: control of Heliothis virescens [1] | control of Thrips tabaci [2] | control of Plutella xylostella [3] | control of Myzus persicae [4] | control of Diabrotica balteata [5] | control of Spodoptera littoralis [6] | control of Tetranychus urticae [7]

CCN(C(=O)c1ccc[n+]([O-])c1)c1cccc(C(=O)Nc2c(Cl)cc(C(F)(C(F)(F)F)C(F)(F)F)cc2Cl)c1OC [Compound C10]
at least 80%: control of Heliothis virescens [1] | control of Thrips tabaci [2] | control of Plutella xylostella [3] | control of Myzus persicae [4] | control of Diabrotica balteata [5] | control of Spodoptera littoralis [6] | control of Tetranychus urticae [7]

COc1c(C(=O)Nc2c(Cl)cc(C(F)(C(F)(F)F)C(F)(F)F)cc2Cl)cccc1N(C)C(=O)c1cccnc1 [Compound C11]
at least 80%: control of Heliothis virescens [1] | control of Thrips tabaci [2] | control of Plutella xylostella [3] | control of Myzus persicae [4] | control of Diabrotica balteata [5] | control of Spodoptera littoralis [6] | control of Tetranychus urticae [7]

COc1c(C(=O)Nc2c(Cl)cc(C(F)(C(F)(F)F)C(F)(F)F)cc2Cl)cccc1N(C)C(=O)c1cncc(Cl)c1 [Compound C12]
at least 80%: control of Heliothis virescens [1] | control of Thrips tabaci [2] | control of Plutella xylostella [3] | control of Myzus persicae [4] | control of Diabrotica balteata [5] | control of Spodoptera littoralis [6] | control of Tetranychus urticae [7]

COc1c(C(=O)Nc2c(Cl)cc(C(F)(C(F)(F)F)C(F)(F)F)cc2Cl)cccc1N(C)C(=O)c1ccc[n+]([O-])c1 [Compound C13]
at least 80%: control of Heliothis virescens [1] | control of Thrips tabaci [2] | control of Plutella xylostella [3] | control of Myzus persicae [4] | control of Diabrotica balteata [5] | control of Spodoptera littoralis [6] | control of Tetranychus urticae [7]

COc1c(C(=O)Nc2c(Cl)cc(C(F)(C(F)(F)F)C(F)(F)F)cc2Cl)cccc1N(C)C(=O)c1cc(Cl)c[n+]([O-])c1 [Compound C14]
at least 80%: control of Heliothis virescens [1] | control of Thrips tabaci [2] | control of Plutella xylostella [3] | control of Myzus persicae [4] | control of Diabrotica balteata [5] | control of Spodoptera littoralis [6] | control of Tetranychus urticae [7]

COc1c(C(=O)Nc2c(Cl)cc(C(F)(C(F)(F)F)C(F)(F)F)cc2Br)cccc1N(C(=O)c1cc[n+]([O-])cc1)C(C)C [Compound D23]
at least 80%: control of Heliothis virescens [1] | control of Thrips tabaci [2] | control of Plutella xylostella [3] | control of Myzus persicae [4] | control of Diabrotica balteata [5] | control of Spodoptera littoralis [6] | control of Tetranychus urticae [7]

COc1c(C(=O)Nc2c(Cl)cc(C(F)(C(F)(F)F)C(F)(F)F)cc2Br)cccc1N(C(=O)c1ccc[n+]([O-])c1)C(C)C [Compound D25]
at least 80%: control of Heliothis virescens [1] | control of Thrips tabaci [2] | control of Plutella xylostella [3] | control of Myzus persicae [4] | control of Spodoptera littoralis [6] | control of Tetranychus urticae [7]

COc1c(NC(=O)c2ccc[n+]([O-])c2)cccc1C(=O)Nc1c(Br)cc(C(F)(C(F)(F)F)C(F)(F)F)cc1Br [Compound G8]
at least 80%: control of Heliothis virescens [1] | control of Thrips tabaci [2] | control of Plutella xylostella [3] | control of Myzus persicae [4] | control of Spodoptera littoralis [6] | control of Tetranychus urticae [7]

CCN(C(=O)c1cc(Cl)c[n+]([O-])c1)c1cccc(C(=O)Nc2c(Br)cc(C(F)(C(F)(F)F)C(F)(F)F)cc2Br)c1OC [Compound G12]
at least 80%: control of Heliothis virescens [1] | control of Plutella xylostella [3] | control of Myzus persicae [4] | control of Spodoptera littoralis [6] | control of Tetranychus urticae [7]

COc1c(NC(=O)c2ccncc2)cccc1C(=O)N(C)c1c(Br)cc(C(F)(C(F)(F)F)C(F)(F)F)cc1Br [Compound G16, N-[3-[[2,6-dibromo-4-[1,2,2,2-tetrafluoro-1-(trifluoromethyl)ethyl]phenyl]-methyl-carbamoyl]-2-methoxy-phenyl]pyridine-4-carboxamide]
at least 80%: control of Heliothis virescens [1] | control of Thrips tabaci [2] | control of Plutella xylostella [3] | control of Myzus persicae [4] | control of Spodoptera littoralis [6] | control of Tetranychus urticae [7]
